# Assay: general procedure: Fmoc solid-phase peptide synthesis; 2-chlorotrityl chloride [(2-Cl) Trt] resin, substitution 1.4 mmol/g; HOBt/DIC/DIPEA; HATU/DIPEA for Boc-HYNIC
# Conditions: whole synthesis
substance,measurement,setting,value
HYNIC-cyclo (Cys^1-Gly^2-Ala^3-Gly^4-His^5-Val^6-Pro^7-Cys^8)-Tyr^9-D-Tyr^10-GABA^11-D-Phe^12-yr^13-Gly^14,isolated yield,,40%
same,final HPLC purity,280 nm,98.8%

# From publication PMC6661308 (2019)
